Test results: PubChem BioAssay AID540256 (National Center for Advancing Translational Sciences (NCATS), 2011)
Among all 300,000 compounds or so, about 3,700 (1.2%) were called active. The shares of active, inactive and inconclusive entries below differ from those in the screen. Calls come from the whole dose curve; tested in HEK293 cells. A potency beside an inconclusive call is a rough fit, not a confirmed value.

experiment: qHTS for Inhibitors of binding or entry into cells for Lassa Virus; conditions: Lassa virus pseudotype entry inhibition, cell reporter; series mostly up to 37.9 µM; note: nearly all actives have a fitted effect of over 50% in size
Potency is the fitted concentration of half-maximal effect.

SMILES	Potency
CCOC(=O)c1cc2c(=O)n3cccc(C)c3nc2n(Cc2ccco2)c1=NC(=O)c1ccc(C)cc1	inactive
CN(CC(=O)Nc1cccc(F)c1)C(=O)c1cccnc1Sc1ccccc1	inconclusive: 0.891 µM [activator, single point]
COc1ccc(NC(=O)c2cccnc2N2CCOCC2)cc1	inactive
CCOc1ccc(CCNC(=O)c2ccc(CNS(=O)(=O)c3ccccc3)cc2)cc1OCC	inactive
O=C(O[C@@H]1OC2COC(=O)c3cc(O)c(O)c(O)c3-c3c(cc(O)c(O)c3O)C(=O)O[C@@H]([C@H]1O)[C@@H]2O)c1cc(O)c(O)c(O)c1	inconclusive: 13 µM [inhibitor, partial curve, poor fit]
CCOc1ccc(NC(=O)CSc2oc(-c3ccccc3)nc2S(=O)(=O)c2ccc(Cl)cc2)cc1	inconclusive: 6.31 µM [inhibitor, single point]
O=C(c1nc2n(n1)C(c1ccc(Cl)cc1)C=C(c1ccccc1)N2)N1CCOCC1 (centres undefined)	inconclusive: 0.501 µM [activator, single point]
CCOCc1cc(CN2CCN(c3ccccc3OC)CC2)c(O)c2ncccc12	inconclusive: 3.16 µM [inhibitor, single point]
O=C(Nc1csc([N+](=O)[O-])c1)Nc1ccccc1Cl	inactive
CO/N=C(\Cn1ncc(NC2CCCCC2)c(Br)c1=O)c1ccc(Cl)cc1	inconclusive: 17.8 µM [inhibitor, partial curve, poor fit]
CCCC(C(=O)Nc1ccc(S(=O)(=O)Nc2ncccn2)cc1)c1ccccc1 (centres undefined)	inactive
Cc1c(NC(=O)CCC(=O)N2CCOCC2)c(=O)n(-c2ccccc2)n1C	inconclusive: 0.708 µM [inhibitor, partial curve, poor fit]
N#Cc1ccccc1COC(=O)c1cccnc1N	inactive
Cc1ccc(-c2noc(CCCC(=O)Nc3cccnc3)n2)cc1	inconclusive: 6.51 µM [inhibitor, partial curve, poor fit]
COc1ccc(C(=O)/C=C/c2cn(CC(O)CN3CCc4ccccc43)c3ccccc23)cc1 (centres undefined)	inconclusive: 22.4 µM [inhibitor, single point]
O=C(CO/N=C/c1ccc(OC(F)F)cc1)N1CCc2ccccc21	inactive
O=C(/C=C/c1ccccc1)N1CCN(c2c(Cl)cccc2[N+](=O)[O-])CC1	inactive
COc1cccc(NC(=O)c2oc3ccccc3c2NC(=O)C2CCCCC2)c1	inconclusive: 10 µM [inhibitor, partial curve, poor fit]
Cc1ccc([N+](=O)[O-])c(OCC(=O)OCC(=O)c2ccccc2)c1	inactive
COc1cc(Nc2nc(SCc3ccccc3Cl)nc3ccccc23)cc(OC)c1	inactive
CCc1ccccc1NC(=O)CCCN1C(=O)CCn2nc(-c3cn(C)c4ccccc34)cc21	inactive
CCn1nc(C)c2c(-c3ccccc3)cc(=O)n(C(C)C(=O)NCc3ccccc3OC)c21 (centres undefined)	inconclusive: 12.6 µM [inhibitor, single point]

Quoted at random: 4 entries already listed.
SMILES	Potency
CCCC(C(=O)Nc1ccc(S(=O)(=O)Nc2ncccn2)cc1)c1ccccc1 (centres undefined)	inactive
CCOCc1cc(CN2CCN(c3ccccc3OC)CC2)c(O)c2ncccc12	inconclusive: 3.16 µM [inhibitor, single point]
CCOc1ccc(NC(=O)CSc2oc(-c3ccccc3)nc2S(=O)(=O)c2ccc(Cl)cc2)cc1	inconclusive: 6.31 µM [inhibitor, single point]
Cc1ccc(-c2noc(CCCC(=O)Nc3cccnc3)n2)cc1	inconclusive: 6.51 µM [inhibitor, partial curve, poor fit]

Further entries.

SMILES	Potency
Cc1ccc(S(=O)(=O)c2nnn3c2nc(NCc2cccs2)c2sccc23)cc1	inconclusive: 5.01 µM [inhibitor, full curve, poor fit]
COC(=O)c1cccc(COC(=O)c2cccnc2SC)c1	inconclusive: 35.5 µM [inhibitor, single point]
CCc1ccc(C(=O)C(C)OC(=O)Cc2n[nH]c(=O)c3ccccc23)cc1 (centres undefined)	inconclusive: 0.631 µM [inhibitor, full curve, poor fit]
S=c1[nH]nc(-c2cc(-c3ccccc3)n[nH]2)n1/N=C/C(Br)=C/c1ccccc1	inconclusive: 11.2 µM [inhibitor, partial curve, poor fit]
C=CCn1cc(-c2ccc(Cl)cc2)cc(C#N)c1=O	inactive
Cc1ccc(C)c(NC(=S)N2CCN(S(=O)(=O)c3ccccc3)CC2)c1	inactive
COc1cc(C(=O)N2CCN(c3ncnc4sc(C)c(C)c34)CC2)cc(OC)c1OC	inconclusive: 13 µM [inhibitor, single point]
CN(Cc1cccc2cnccc12)C(=O)c1cc(COc2ccc(F)cc2Cl)on1	inconclusive: 35.5 µM [inhibitor, single point]
CN(C)c1cccc(C(=O)Nc2cccc(F)c2)c1	inconclusive: 10.3 µM [activator, partial curve, poor fit]
CN(C)CCNc1nc2sc3c(c2c(=O)n1-c1ccc(F)cc1)CCCCC3	inconclusive: 0.562 µM [inhibitor, partial curve, poor fit]
c1cncc(-c2nc(-c3ccco3)cs2)c1	inactive
COc1ccc(C(=O)COC(=O)CN2CC(=O)Oc3ccccc32)cc1Br	inconclusive: 1.16 µM [inhibitor, full curve, poor fit]
O=C1CCc2cc(S(=O)(=O)NCc3ccccc3Cl)cc3c2N1CC3	inconclusive: 6.31 µM [inhibitor, partial curve, poor fit]
O=S(=O)(c1ccccc1)c1nc(-c2ccc(F)cc2)oc1NCC1CCCO1 (centres undefined)	inconclusive: 0.282 µM [inhibitor, full curve, poor fit]
Cc1cc(-c2ccc(Br)cc2)n[nH]1	inactive
COc1ccc(-c2nsc3c(N4CCN(S(=O)(=O)c5ccccc5F)CC4)ncnc23)cc1	inactive
COc1ccccc1NC(=O)Cn1c(=O)c(CNc2ccccc2)cc2cc(OC)c(OC)cc21	inactive
Cc1cccc(CNC(=O)c2ccc3c(c2)c(C)c(C)n3Cc2ccccc2)c1	inconclusive: 1.41 µM [activator, partial curve, poor fit]
COc1ccccc1C1C=C(c2ccc(C(C)C)cc2)Nc2nnnn21 (centres undefined)	inconclusive: 35.5 µM [inhibitor, single point]
Cc1cc(C)cc(OCc2cc(=O)n3c(-c4ccccc4)csc3n2)c1	inactive
CCCc1nn(C)c(C(=O)Nc2cccc(Cl)c2)c1Cl	inactive
CC(C)Cc1ccc(CN2C(C(C)C)C(=O)N(Cc3cn(CCC4OCCO4)nn3)CCS2(=O)=O)cc1 (centres undefined)	inconclusive: 22.3 µM [inhibitor, partial curve, poor fit]
